PubChem BioAssay AID1259308 | NCATS | 2017
Here is a random part of about 59,000 reagents. Over the whole deposit, about 1,510 (2.6%) are marked active. 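Calls use total luciferase alone and ignore viability, so some active siRNAs may act by altering cell number.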 A number with no mark means an inactive call. Reagents against one gene are numbered here. Not all columns of the deposit are shown.

- Aim: 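Candidate targets for better recombinant protein yield in mammalian cells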 (primary screen)
- System: human HEK293 embryonic kidney cells stably expressing firefly luciferase (HEK-CMV-Luc2-Hygro)
- Reagents: single siRNA against human genes, 0.8 pmol siRNA per well
- Duration: 72 h
- Measurement: 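Reporter luminescence and viable-cell signal on separate replicate plates, given as percent of non-targeting control and median/MAD z-scores, plus per-cell luciferase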
- Reading the numbers: total luciferase, z-score and total luciferase, % of control: higher = more reporter protein produced
- Active means: 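An siRNA counts as active if its total luciferase robust z-score exceeds 3; genes with two or more such siRNAs out of three were retested with fresh siRNAs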
- Calls: active = raised luciferase; inactive = no rise

Against METTL15P3 (methyltransferase like 15 pseudogene 3) #1, the entry reads total luciferase, z-score -1.07; total luciferase, % of control 60.7.
METTL15P3 (methyltransferase like 15 pseudogene 3) #2 gave total luciferase, z-score 2.9; total luciferase, % of control 139.
After knock-down of METTL15P3 (methyltransferase like 15 pseudogene 3) #3 the results were total luciferase, z-score 1.42; total luciferase, % of control 110.
For CCDC188 (coiled-coil domain containing 188) #1, the values are total luciferase, z-score 2.18; total luciferase, % of control 125.
Knock-down of CCDC188 (coiled-coil domain containing 188) #2 came out at: total luciferase, z-score 2.14; total luciferase, % of control 125.
With knock-down of CCDC188 (coiled-coil domain containing 188) #3, the record shows total luciferase, z-score -0.0385; total luciferase, % of control 81.1.
ACACB (acetyl-CoA carboxylase beta) #1 scored total luciferase, z-score -0.821; total luciferase, % of control 65.6.
With knock-down of ACACB (acetyl-CoA carboxylase beta) #2 the results were total luciferase, z-score 1.3; total luciferase, % of control 108.
ACACB (acetyl-CoA carboxylase beta) #3 gave total luciferase, z-score 0.833; total luciferase, % of control 98.5.
FAM177A1P1 (family with sequence similarity 177 member A1 pseudogene 1) #1 gave total luciferase, z-score 2.11; total luciferase, % of control 124.
Against FAM177A1P1 (family with sequence similarity 177 member A1 pseudogene 1) #2 the deposit lists total luciferase, z-score -0.454; total luciferase, % of control 72.8.
Depletion of FAM177A1P1 (family with sequence similarity 177 member A1 pseudogene 1) #3 came out at: total luciferase, z-score 0.112; total luciferase, % of control 84.1.
For ALG1L3P (ALG1 like 3, pseudogene) #1, the entry reads total luciferase, z-score -0.928; total luciferase, % of control 63.4.
Against ALG1L3P (ALG1 like 3, pseudogene) #2, the entry reads total luciferase, z-score -0.105; total luciferase, % of control 79.8.
With knock-down of ALG1L3P (ALG1 like 3, pseudogene) #3, the record shows total luciferase, z-score 0.383; total luciferase, % of control 89.5.
After knock-down of UBAC1 (UBA domain containing 1) #1, the record shows total luciferase, z-score 1.11; total luciferase, % of control 104.
With knock-down of UBAC1 (UBA domain containing 1) #2, the screen gave total luciferase, z-score 1.47; total luciferase, % of control 111.
Silencing of UBAC1 (UBA domain containing 1) #3 came out at: total luciferase, z-score -0.276; total luciferase, % of control 76.4.
With knock-down of KCND3 (potassium voltage-gated channel subfamily D member 3) #1, the record shows total luciferase, z-score 0.588; total luciferase, % of control 93.6.
Against KCND3 (potassium voltage-gated channel subfamily D member 3) #2 the deposit lists total luciferase, z-score -0.891; total luciferase, % of control 64.2.
KCND3 (potassium voltage-gated channel subfamily D member 3) #3 gave total luciferase, z-score -0.415; total luciferase, % of control 73.6.
Knock-down of ADGRD1 (adhesion G protein-coupled receptor D1) #1 gave: total luciferase, z-score -0.102; total luciferase, % of control 79.9.
For ADGRD1 (adhesion G protein-coupled receptor D1) #2, the entry reads total luciferase, z-score 0.495; total luciferase, % of control 91.7.
ADGRD1 (adhesion G protein-coupled receptor D1) #3 scored total luciferase, z-score -1.08; total luciferase, % of control 60.4.
Knock-down of TMEM231 (transmembrane protein 231) #1 came out at: total luciferase, z-score 0.821; total luciferase, % of control 98.2.
After knock-down of TMEM231 (transmembrane protein 231) #2 the results were total luciferase, z-score -0.242; total luciferase, % of control 77.1.
After knock-down of TMEM231 (transmembrane protein 231) #3, the screen gave total luciferase, z-score 0.614; total luciferase, % of control 94.1.
With knock-down of FAM178B (family with sequence similarity 178 member B) #1 the results were total luciferase, z-score 0.157; total luciferase, % of control 85.
Against FAM178B (family with sequence similarity 178 member B) #2, the entry reads total luciferase, z-score 1.63; total luciferase, % of control 114.
For FAM178B (family with sequence similarity 178 member B) #3 the deposit lists total luciferase, z-score 0.374; total luciferase, % of control 89.3.
DBP (D-box binding PAR bZIP transcription factor) #1 scored total luciferase, z-score 1.24; total luciferase, % of control 107.
Depletion of DBP (D-box binding PAR bZIP transcription factor) #2 came out at: total luciferase, z-score 0.0644; total luciferase, % of control 83.2.
DBP (D-box binding PAR bZIP transcription factor) #3 showed total luciferase, z-score -1.01; total luciferase, % of control 61.7.

4 of these entries in another layout.
CCDC188 (coiled-coil domain containing 188) #3
- total luciferase, z-score: -0.0385
- total luciferase, % of control: 81.1

ACACB (acetyl-CoA carboxylase beta) #1
- total luciferase, z-score: -0.821
- total luciferase, % of control: 65.6

ACACB (acetyl-CoA carboxylase beta) #2
- total luciferase, z-score: 1.3
- total luciferase, % of control: 108

ACACB (acetyl-CoA carboxylase beta) #3
- total luciferase, z-score: 0.833
- total luciferase, % of control: 98.5
